Data taken from patent US20250136708A1 (YEDA RESEARCH AND DEVELOPMENT, published 2025).
Results are given in words; binding and its absence hold for the method and conditions named. Some binding calls cover weakened binding; strength is not graded here.

The chains behind the UniProt entries cited, without tags or fusion partners.
UniProt P21281: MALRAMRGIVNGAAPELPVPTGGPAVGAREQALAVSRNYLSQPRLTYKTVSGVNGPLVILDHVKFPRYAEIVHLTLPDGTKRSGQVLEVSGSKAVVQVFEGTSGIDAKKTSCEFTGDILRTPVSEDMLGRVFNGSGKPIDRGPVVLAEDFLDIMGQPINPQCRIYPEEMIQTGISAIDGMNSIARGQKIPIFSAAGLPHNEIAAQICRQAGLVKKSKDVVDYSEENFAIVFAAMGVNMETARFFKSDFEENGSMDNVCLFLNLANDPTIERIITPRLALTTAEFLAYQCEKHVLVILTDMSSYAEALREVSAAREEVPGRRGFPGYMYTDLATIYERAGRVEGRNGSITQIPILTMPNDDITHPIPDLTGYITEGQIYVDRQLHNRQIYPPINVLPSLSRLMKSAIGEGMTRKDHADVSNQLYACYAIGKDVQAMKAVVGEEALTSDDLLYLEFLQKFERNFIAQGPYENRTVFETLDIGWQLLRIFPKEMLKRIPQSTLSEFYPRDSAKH
UniProt P62814: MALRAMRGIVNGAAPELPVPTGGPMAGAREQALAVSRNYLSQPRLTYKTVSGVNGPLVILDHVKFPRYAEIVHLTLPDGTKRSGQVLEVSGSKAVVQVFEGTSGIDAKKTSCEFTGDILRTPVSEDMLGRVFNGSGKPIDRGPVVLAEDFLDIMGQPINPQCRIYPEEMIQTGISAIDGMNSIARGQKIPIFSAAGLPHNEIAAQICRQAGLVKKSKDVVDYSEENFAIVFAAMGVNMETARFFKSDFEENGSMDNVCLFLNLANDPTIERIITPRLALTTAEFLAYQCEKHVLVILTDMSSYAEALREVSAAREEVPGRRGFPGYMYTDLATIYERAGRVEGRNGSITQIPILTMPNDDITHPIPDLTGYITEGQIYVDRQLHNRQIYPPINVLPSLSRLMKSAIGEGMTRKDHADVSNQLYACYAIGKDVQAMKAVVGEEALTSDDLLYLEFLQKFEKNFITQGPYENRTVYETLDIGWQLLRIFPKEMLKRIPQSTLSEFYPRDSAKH

What was measured:
[1] = molecular target: human ATP6V1B2 on the surface of senescent human cells (IMR-90 lung fibroblasts, IPF lung fibroblasts, A549 lung adenocarcinoma cells) (human) (UniProt P21281); assay: FACS, non-permeabilized senescent IMR-90 cells, antibody at 10 ug/ml
[2] = molecular target: human ATP6V1B2 on the surface of senescent human cells (IMR-90 lung fibroblasts, IPF lung fibroblasts, A549 lung adenocarcinoma cells) (human) (UniProt P21281); assay: FACS, senescent IMR-90 cells, compared with commercial antibodies
[3] = molecular target: mouse ATP6V1B2 on the surface of senescent mouse lung fibroblasts (CCL-206) (mouse) (UniProt P62814); assay: FACS, senescent CCL-206 cells, compared with commercial antibodies
[4] = molecular target: mouse ATP6V1B2 on the surface of senescent mouse lung fibroblasts (CCL-206) (mouse) (UniProt P62814); assay: FACS, non-permeabilized senescent CCL-206 cells, antibody at 10 ug/ml

Measured: binding

B1: anti-ATP6V1B2 antibody 4G06 (antibody, V domains shown)
VH: QVQLQQSGAELVKPGASVKVSCKASGYTFTNYWMHWVRQRPGQGLEWIGRIDPSDSDTNYTQKFKGKATLTVDKSSNTAYMQVSSLTSEDFAVYYCAELGTFDYWGQGTSLTVSV
VL: DIVMTQTPLSLPVSLGDQASIYCRSSRSLVHSNGKTYLHWYQQKPGQSPKLLIYKVSNRFSGVPDRFSGSGSGTDFTLKISRVEAEDLGVYFCSQSTHVPWTFGGGTKLEIK
binds: all assays above
